# From article doi:10.1101/419911
# Protein sequences, listed by entry. Tags and fused reporters are not part of them. Lines headed by an entry give the natural chain unless they say otherwise; changes in a name come on top. Chains listed by the source or under a name are the forms on record and can include a tag or linker. Residues count along the entry.
# UniProt Q96CW1: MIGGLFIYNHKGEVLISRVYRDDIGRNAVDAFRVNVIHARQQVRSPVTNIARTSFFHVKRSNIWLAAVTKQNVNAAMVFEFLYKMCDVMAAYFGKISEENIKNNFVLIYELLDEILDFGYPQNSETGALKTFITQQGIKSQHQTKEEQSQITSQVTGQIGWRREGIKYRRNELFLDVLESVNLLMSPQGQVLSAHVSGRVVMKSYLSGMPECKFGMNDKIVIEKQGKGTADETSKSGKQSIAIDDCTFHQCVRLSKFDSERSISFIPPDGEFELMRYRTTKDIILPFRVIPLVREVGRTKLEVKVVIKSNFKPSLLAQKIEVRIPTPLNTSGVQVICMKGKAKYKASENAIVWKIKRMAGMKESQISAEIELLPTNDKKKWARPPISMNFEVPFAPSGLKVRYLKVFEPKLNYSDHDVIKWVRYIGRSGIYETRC
# UniProt P35568: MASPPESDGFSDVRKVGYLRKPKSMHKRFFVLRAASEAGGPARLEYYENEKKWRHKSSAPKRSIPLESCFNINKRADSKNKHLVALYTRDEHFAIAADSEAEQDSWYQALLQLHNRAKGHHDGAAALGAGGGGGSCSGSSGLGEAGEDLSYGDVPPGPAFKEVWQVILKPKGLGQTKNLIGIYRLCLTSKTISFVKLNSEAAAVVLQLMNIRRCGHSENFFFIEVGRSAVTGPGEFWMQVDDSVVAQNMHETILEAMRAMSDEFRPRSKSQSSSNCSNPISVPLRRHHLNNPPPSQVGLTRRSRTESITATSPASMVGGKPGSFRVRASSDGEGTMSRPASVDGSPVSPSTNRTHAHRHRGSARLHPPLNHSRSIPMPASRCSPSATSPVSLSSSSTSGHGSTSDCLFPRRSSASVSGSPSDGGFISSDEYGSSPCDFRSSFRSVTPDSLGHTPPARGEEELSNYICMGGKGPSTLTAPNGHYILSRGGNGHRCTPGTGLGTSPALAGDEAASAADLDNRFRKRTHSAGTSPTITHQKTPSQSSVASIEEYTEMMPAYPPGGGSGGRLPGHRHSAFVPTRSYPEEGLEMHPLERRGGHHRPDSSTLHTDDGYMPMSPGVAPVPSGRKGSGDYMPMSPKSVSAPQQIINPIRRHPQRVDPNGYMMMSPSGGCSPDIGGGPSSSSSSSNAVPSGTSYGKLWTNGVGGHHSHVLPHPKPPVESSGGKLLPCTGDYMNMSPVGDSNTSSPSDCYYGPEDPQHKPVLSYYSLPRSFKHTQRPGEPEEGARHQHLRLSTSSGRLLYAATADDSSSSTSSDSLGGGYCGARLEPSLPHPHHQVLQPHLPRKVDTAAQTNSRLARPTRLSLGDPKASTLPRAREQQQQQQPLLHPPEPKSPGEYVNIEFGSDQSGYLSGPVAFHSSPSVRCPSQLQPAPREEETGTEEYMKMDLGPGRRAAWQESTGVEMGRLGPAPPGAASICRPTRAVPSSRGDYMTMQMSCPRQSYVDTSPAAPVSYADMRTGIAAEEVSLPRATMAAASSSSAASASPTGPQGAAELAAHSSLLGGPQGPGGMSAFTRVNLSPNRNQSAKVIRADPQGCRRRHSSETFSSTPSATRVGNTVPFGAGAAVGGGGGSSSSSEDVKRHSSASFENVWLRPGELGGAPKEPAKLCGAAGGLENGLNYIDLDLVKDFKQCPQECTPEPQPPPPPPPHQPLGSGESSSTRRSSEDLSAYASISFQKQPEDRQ
# IRS1 (residues 449-864) 3YA (Y612A/Y632A/Y662A) (P35568, form named): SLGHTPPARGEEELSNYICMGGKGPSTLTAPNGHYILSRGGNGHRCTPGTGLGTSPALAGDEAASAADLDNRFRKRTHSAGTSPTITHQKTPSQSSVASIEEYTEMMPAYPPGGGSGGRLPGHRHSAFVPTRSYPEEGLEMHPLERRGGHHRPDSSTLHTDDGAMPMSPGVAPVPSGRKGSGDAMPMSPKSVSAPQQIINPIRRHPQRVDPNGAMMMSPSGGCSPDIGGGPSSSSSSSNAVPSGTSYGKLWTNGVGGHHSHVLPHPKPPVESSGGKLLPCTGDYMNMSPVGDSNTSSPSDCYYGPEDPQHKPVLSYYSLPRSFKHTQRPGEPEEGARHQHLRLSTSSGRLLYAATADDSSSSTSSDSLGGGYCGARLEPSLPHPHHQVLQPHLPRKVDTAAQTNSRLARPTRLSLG
# Like-named read-outs stand apart in the source and are kept apart here. Results are given in words; binding and its absence hold for the method and conditions named. For part of these data: Binding seen in cells or lysates may run through a third protein. Some binding calls cover weakened binding; strength is not graded here.
# T1: IRS1 peptide AMPAS (Y612 and M615 replaced by alanine) (human)
# T1 sequence (peptide): CHTDDGAMPASPGVA
# What was measured:
# Test in all cases: pull-down
# [1] = target: T1, IRS1 peptide AMPAS (Y612 and M615 replaced by alanine) (human)
# [2] = target: GST-AP2M1 (full-length human AP2M1) (human) (UniProt Q96CW1)
# [3] = target: GST-AP2M1 (full-length human AP2M1) (human) (UniProt Q96CW1); remark: listed apart in the source
binding [2],Molecule,also measured
–,AP2M1 (residues 160-435) (from UniProt Q96CW1 160-435) (domain or fragment),binding [1]: no binding
binds,IRS1 (residues 449-864) 3YA (Y612A/Y632A/Y662A) (from UniProt P35568 449-864) (domain or fragment),–
binds,IRS1 (residues 449-864) (from UniProt P35568 449-864) (domain or fragment),–
binds,IRS1 YXXΦ-containing central region (residues 449-679) (from UniProt P35568 449-679) (domain or fragment),–
binds,Myc-IRS1 full-length (from UniProt P35568 1-1242),–
–,"IRS2 fragment (residues 520-888) (domain or fragment, UniProt P81122 520-888) SIAETPPARDGSGGELYGYMSMDRPLSHCGRPYRRVSGDGAQDLDRGLRKRTYSLTTPARQRQVPQPSSASLDEYTLMRATFSGSSGRLCPSFPASSPKVAYNPYPEDYGDIEIGSHKSSSSNLGADDGYMPMTPGAALRSGGPNSCKSDDYMPMSPTSVSAPKQILQPRLAAALPPSGAAVPAPPSGVGRTFPVNGGGYKASSPAESSPEDSGYMRMWCGSKLSMENPDPKLLPNGDYLNMSPSEAGTAGTPPDFSAALRGGSEGLKGIPGHCYSSLPRSYKAPCSCSGDNDQYVLMSSPVGRILEEERLEPQATPGAGTFGAAGGSHTQPHHSAVPSSMRPSAIGGRPEGFLGQRCRAVRPTRLSLE",binding [3]: binds
